Counter-ions that a name gives are not always drawn. The list shows a part of the results. Many values rest on one well or one pass, so single values are uncertain.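 Primary human fetal astrocytes engulfed labelled rat cortical synaptosomes, measured as a red/green ratio corrected for calcein live-cell signal and scaled to the plate median. Toxicity meant calcein falling over 30%; decreased phagocytosis meant below 70% of median above 5 µM.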
Tested on: Human fetal astrocytes
Experiment: synaptosome phagocytosis (pHrodo/calcein intensity ratio) relative to plate median of data wells; higher = more phagocytosis
Settings: 5.56 µM; 24 h

| SMILES | synaptosome phagocytosis |
| --- | --- |
| COc1cc(O)cc(OC)c1OC | 69.3% |
| Nc1ccc(C(=O)O)c(O)c1 | 103% |
| Cc1cc(-c2ccccc2)nnc1NCCN1CCOCC1 | 112% |
| C=C1c2c(Cl)ccc(O)c2C(O)=C2C(=O)[C@]3(O)C(O)=C(C(N)=O)C(=O)[C@@H](N(C)C)[C@@H]3[C@@H](O)[C@H]12.O=C(O)c1cc(S(=O)(=O)O)ccc1O | 104% |
| CCCCCCCCCc1ccc(OCCOCCOCCOCCOCCOCCOCCOCCOCCO)cc1 | 98.8% |
| O=C1CCc2ccc(OCCCCN3CCN(c4cccc(Cl)c4Cl)CC3)cc2N1 | 83.9% |
| NC(=O)c1cc[n+](CC2=C(C(=O)O)N3C(=O)[C@@H](NC(=O)[C@@H](c4ccccc4)S(=O)(=O)[O-])[C@H]3SC2)cc1 | 110% |
| CC(C)=CC1C(C(=O)O)C1(C)C (stereo not drawn) | 80.3% |
| CCC(C)C(=O)OC1[C@@H]2CC3=C4CC(=O)O[C@@H](c5ccoc5)[C@]4(C)CCC3[C@@](C)(C2=O)[C@@H](CC(=O)OC)C1(C)C (stereo partly drawn) | 101% |
| C/C=C1\[C@H]2C=C(C)C[C@]1(N)c1ccc(=O)[nH]c1C2 | 119% |
| Nc1cc(C(Cl)=C(Cl)Cl)c(S(N)(=O)=O)cc1S(N)(=O)=O | 116% |
| CC(C)(C(=O)O)c1ccc(C(O)CCCN2CCC(C(O)(c3ccccc3)c3ccccc3)CC2)cc1 (stereo not drawn) [Fexofenadine hydrochloride] | 118% |
| CO[C@@]1(NC(=O)C(C(=O)O)c2ccc(O)cc2)C(=O)N2C(C(=O)O)=C(CSc3nnnn3C)CO[C@@H]21 (stereo partly drawn) | 114% |
| Cc1ncc(CO)c(CO)c1O | 106% |
| CCOc1ccc(NC(C)=O)cc1 | 98.8% |
| COc1cc(C(=O)N2CCOCC2)cc(OC)c1OC | 99.3% |
| CO[C@H]1C[C@H](O[C@H]2[C@H](C)[C@@H](O[C@@H]3O[C@H](C)C[C@H](N(C)C)[C@H]3O)[C@@H](C)C[C@@]3(CO3)C(=O)[C@H](C)[C@@H](O)[C@@H](C)[C@@H](C)OC(=O)[C@@H]2C)O[C@@H](C)[C@@H]1O | 134% |
| COC(=O)[C@H]1[C@H]2C[C@H]3c4[nH]c5cc(OC)ccc5c4CCN3C[C@H]2C[C@@H](OC(=O)c2cc(OC)c(OC)c(OC)c2)[C@@H]1OC | 118% |
| CCOc1ccc(C(=O)c2ccc(OC)c(O)c2O)cc1 | 120% |
| Cc1ncc(C[n+]2csc(CCO)c2C)c(N)n1 | 127% |

| SMILES | synaptosome phagocytosis |
| --- | --- |
| CCC(=O)OCC(=O)[C@@]1(OC(=O)CC)[C@@H](C)C[C@H]2[C@@H]3CCC4=CC(=O)C=C[C@]4(C)[C@@]3(F)[C@@H](O)C[C@@]21C | 80.1% |
| O=C1C(CC[S+]([O-])c2ccccc2)C(=O)N(c2ccccc2)N1c1ccccc1 (stereo not drawn) | 104% |
| CCCN(CCC)S(=O)(=O)c1ccc(C(=O)O)cc1 | 134% |
| CC1(C)S[C@@H]2[C@H](N3C(=O)[C@@H](c4ccccc4)NC3(C)C)C(=O)N2[C@H]1C(=O)O | 114% |
| COc1c(O)cc(O)cc1O | 105% |
| Cc1c(N(C)C)c(=O)n(-c2ccccc2)n1C | 110% |
| C[N+](C)(C)CCOP(=O)(O)OP(=O)([O-])OC[C@H]1O[C@@H](n2ccc(N)nc2=O)[C@H](O)[C@@H]1O | 128% |
| COC(=O)C[C@H]1C(C)(C)[C@@H](OC(C)=O)[C@@H]2CC3C4CC(=O)O[C@@H](c5ccoc5)[C@]4(C)CCC3[C@@]1(C)C2=O (stereo partly drawn) | 97.2% |
| CCOc1ccc2ccccc2c1C(=O)N[C@@H]1C(=O)N2[C@@H]1SC(C)(C)[C@@H]2C(=O)O | 122% |
| CN1C(=O)OC(C)(C)C1=O | 110% |
| Cn1c([N+](=O)[O-])cnc1COC(N)=O | 93.8% |
| OC(CCN1CCCCC1)(c1ccccc1)C1CC2C=CC1C2 (stereo not drawn) | 122% |
| COc1c(-c2coc3cc4c(cc3c2=O)CC(O)C(C)(C)O4)ccc2c1C=CC(C)(C)O2 (stereo not drawn) | 112% |
| NCCOB(c1ccccc1)c1ccccc1 | 122% |
| CC1=CCCC(C)=CCC(C)(C)C=CC1 [HUMULENE (alpha)] | 116% |
| C=CC(C1=CC(=O)C(OC)=CC1=O)c1ccc(O)cc1 (stereo not drawn) | 76.7% |
| CCC[C@@H]1C[C@@H](C(=O)N[C@@H]([C@H]2O[C@H](SC)[C@H](O)[C@@H](O)[C@H]2O)[C@@H](C)O)N(C)C1 | 72.8% |
| CCOC(=O)c1c(C)cc(O)cc1O | 138% |
| Nc1ccccc1C(=O)CC(N)C(=O)O (stereo not drawn) | 87% |

Same assay, conditions: 11.11 µM; 24 h

| SMILES | synaptosome phagocytosis |
| --- | --- |
| COc1cc(O)cc(OC)c1OC | 93.4% |
| Nc1ccc(C(=O)O)c(O)c1 | 91% |
| Cc1cc(-c2ccccc2)nnc1NCCN1CCOCC1 | 77.3% |
| C=C1c2c(Cl)ccc(O)c2C(O)=C2C(=O)[C@]3(O)C(O)=C(C(N)=O)C(=O)[C@@H](N(C)C)[C@@H]3[C@@H](O)[C@H]12.O=C(O)c1cc(S(=O)(=O)O)ccc1O | 89% |
| CCCCCCCCCc1ccc(OCCOCCOCCOCCOCCOCCOCCOCCOCCO)cc1 | 45.3% |
| O=C1CCc2ccc(OCCCCN3CCN(c4cccc(Cl)c4Cl)CC3)cc2N1 | 82.2% |
| NC(=O)c1cc[n+](CC2=C(C(=O)O)N3C(=O)[C@@H](NC(=O)[C@@H](c4ccccc4)S(=O)(=O)[O-])[C@H]3SC2)cc1 | 99% |
| CC(C)=CC1C(C(=O)O)C1(C)C (stereo not drawn) | 114% |
| CCC(C)C(=O)OC1[C@@H]2CC3=C4CC(=O)O[C@@H](c5ccoc5)[C@]4(C)CCC3[C@@](C)(C2=O)[C@@H](CC(=O)OC)C1(C)C (stereo partly drawn) | 94.5% |
| C/C=C1\[C@H]2C=C(C)C[C@]1(N)c1ccc(=O)[nH]c1C2 | 107% |
| Nc1cc(C(Cl)=C(Cl)Cl)c(S(N)(=O)=O)cc1S(N)(=O)=O | 76.8% |
| CC(C)(C(=O)O)c1ccc(C(O)CCCN2CCC(C(O)(c3ccccc3)c3ccccc3)CC2)cc1 (stereo not drawn) [Fexofenadine hydrochloride] | 154% |
| CO[C@@]1(NC(=O)C(C(=O)O)c2ccc(O)cc2)C(=O)N2C(C(=O)O)=C(CSc3nnnn3C)CO[C@@H]21 (stereo partly drawn) | 116% |
| Cc1ncc(CO)c(CO)c1O | 81.6% |
| CCOc1ccc(NC(C)=O)cc1 | 104% |
| COc1cc(C(=O)N2CCOCC2)cc(OC)c1OC | 103% |
| CO[C@H]1C[C@H](O[C@H]2[C@H](C)[C@@H](O[C@@H]3O[C@H](C)C[C@H](N(C)C)[C@H]3O)[C@@H](C)C[C@@]3(CO3)C(=O)[C@H](C)[C@@H](O)[C@@H](C)[C@@H](C)OC(=O)[C@@H]2C)O[C@@H](C)[C@@H]1O | 127% |
| COC(=O)[C@H]1[C@H]2C[C@H]3c4[nH]c5cc(OC)ccc5c4CCN3C[C@H]2C[C@@H](OC(=O)c2cc(OC)c(OC)c(OC)c2)[C@@H]1OC | 76.2% |
| CCOc1ccc(C(=O)c2ccc(OC)c(O)c2O)cc1 | 127% |
| Cc1ncc(C[n+]2csc(CCO)c2C)c(N)n1 | 136% |

| SMILES | synaptosome phagocytosis |
| --- | --- |
| CCC(=O)OCC(=O)[C@@]1(OC(=O)CC)[C@@H](C)C[C@H]2[C@@H]3CCC4=CC(=O)C=C[C@]4(C)[C@@]3(F)[C@@H](O)C[C@@]21C | 135% |
| O=C1C(CC[S+]([O-])c2ccccc2)C(=O)N(c2ccccc2)N1c1ccccc1 (stereo not drawn) | 116% |
| CCCN(CCC)S(=O)(=O)c1ccc(C(=O)O)cc1 | 101% |
| CC1(C)S[C@@H]2[C@H](N3C(=O)[C@@H](c4ccccc4)NC3(C)C)C(=O)N2[C@H]1C(=O)O | 113% |
| COc1c(O)cc(O)cc1O | 155% |
| Cc1c(N(C)C)c(=O)n(-c2ccccc2)n1C | 88.6% |
| C[N+](C)(C)CCOP(=O)(O)OP(=O)([O-])OC[C@H]1O[C@@H](n2ccc(N)nc2=O)[C@H](O)[C@@H]1O | 144% |
| COC(=O)C[C@H]1C(C)(C)[C@@H](OC(C)=O)[C@@H]2CC3C4CC(=O)O[C@@H](c5ccoc5)[C@]4(C)CCC3[C@@]1(C)C2=O (stereo partly drawn) | 99.7% |
| CCOc1ccc2ccccc2c1C(=O)N[C@@H]1C(=O)N2[C@@H]1SC(C)(C)[C@@H]2C(=O)O | 94.6% |
| CN1C(=O)OC(C)(C)C1=O | 103% |
| Cn1c([N+](=O)[O-])cnc1COC(N)=O | 111% |
| OC(CCN1CCCCC1)(c1ccccc1)C1CC2C=CC1C2 (stereo not drawn) | 74.6% |
| COc1c(-c2coc3cc4c(cc3c2=O)CC(O)C(C)(C)O4)ccc2c1C=CC(C)(C)O2 (stereo not drawn) | 86.7% |
| NCCOB(c1ccccc1)c1ccccc1 | 110% |
| CC1=CCCC(C)=CCC(C)(C)C=CC1 [HUMULENE (alpha)] | 98.8% |
| C=CC(C1=CC(=O)C(OC)=CC1=O)c1ccc(O)cc1 (stereo not drawn) | 130% |
| CCC[C@@H]1C[C@@H](C(=O)N[C@@H]([C@H]2O[C@H](SC)[C@H](O)[C@@H](O)[C@H]2O)[C@@H](C)O)N(C)C1 | 89.3% |
| CCOC(=O)c1c(C)cc(O)cc1O | 85.7% |
| Nc1ccccc1C(=O)CC(N)C(=O)O (stereo not drawn) | 103% |

Reference: the supplement of paper PMC10689618
